Results as given in publication PMC7075897.

Assays:
[1] = target: T1, EcR (isoform A) fused to BioID2 through a 25 nm GS linker, marked with 3xFLAG (Drosophila melanogaster) (UniProt P34021); assay: proximity labelling; BioID2 fusions or BioID2 alone in S2 cells, 20E or DMSO 14 h; streptavidin precipitates of nuclear lysates analysed by western blot
T1 sequence: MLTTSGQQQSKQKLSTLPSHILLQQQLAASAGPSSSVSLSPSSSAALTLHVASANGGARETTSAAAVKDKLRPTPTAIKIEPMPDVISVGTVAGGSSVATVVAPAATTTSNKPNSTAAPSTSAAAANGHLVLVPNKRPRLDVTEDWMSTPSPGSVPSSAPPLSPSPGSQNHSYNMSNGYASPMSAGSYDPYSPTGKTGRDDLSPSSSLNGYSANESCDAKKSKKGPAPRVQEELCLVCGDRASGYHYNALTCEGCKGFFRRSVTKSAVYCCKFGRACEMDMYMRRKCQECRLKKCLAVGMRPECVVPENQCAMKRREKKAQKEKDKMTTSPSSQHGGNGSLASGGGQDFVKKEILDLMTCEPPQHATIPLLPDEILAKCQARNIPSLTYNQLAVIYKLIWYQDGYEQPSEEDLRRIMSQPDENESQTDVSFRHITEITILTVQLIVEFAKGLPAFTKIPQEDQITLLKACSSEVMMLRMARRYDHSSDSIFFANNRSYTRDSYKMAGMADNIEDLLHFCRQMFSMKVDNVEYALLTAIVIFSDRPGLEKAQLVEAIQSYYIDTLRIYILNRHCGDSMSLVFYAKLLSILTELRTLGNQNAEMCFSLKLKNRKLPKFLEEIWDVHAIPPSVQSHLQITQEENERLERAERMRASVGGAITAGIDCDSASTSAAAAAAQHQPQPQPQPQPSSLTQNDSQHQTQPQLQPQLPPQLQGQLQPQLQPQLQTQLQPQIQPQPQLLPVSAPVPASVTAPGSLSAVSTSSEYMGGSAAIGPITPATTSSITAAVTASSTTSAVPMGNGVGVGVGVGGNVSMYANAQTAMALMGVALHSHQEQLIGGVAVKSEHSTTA

[2] = target: T2, Usp fused to BioID2 through a 25 nm GS linker, marked with 3xFLAG (Drosophila melanogaster) (UniProt P20153); assay: as above
T2 sequence: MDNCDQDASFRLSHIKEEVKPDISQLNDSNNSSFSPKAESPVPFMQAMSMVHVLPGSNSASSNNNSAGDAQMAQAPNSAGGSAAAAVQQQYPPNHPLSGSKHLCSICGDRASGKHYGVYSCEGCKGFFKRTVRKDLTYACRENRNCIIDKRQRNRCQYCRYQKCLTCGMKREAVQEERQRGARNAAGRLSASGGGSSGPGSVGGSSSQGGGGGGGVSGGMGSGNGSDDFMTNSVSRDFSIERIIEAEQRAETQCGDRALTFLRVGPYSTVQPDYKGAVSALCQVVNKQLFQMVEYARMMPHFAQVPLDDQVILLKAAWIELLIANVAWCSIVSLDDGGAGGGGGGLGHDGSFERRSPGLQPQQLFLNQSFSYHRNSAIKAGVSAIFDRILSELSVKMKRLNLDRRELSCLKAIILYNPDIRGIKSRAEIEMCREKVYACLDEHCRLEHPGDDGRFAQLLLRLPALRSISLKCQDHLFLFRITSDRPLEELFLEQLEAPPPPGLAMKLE

[3] = target: T1, EcR (isoform A) fused to BioID2 through a 25 nm GS linker, marked with 3xFLAG (Drosophila melanogaster); assay: proximity labelling; BioID2 fused to EcR or Usp, stably expressed in S2 cells; biotin 50 nM, 20E or DMSO for 14 h; nuclear extract, Streptavidin-Agarose precipitation, LC-MS/MS
[4] = target: T2, Usp fused to BioID2 through a 25 nm GS linker, marked with 3xFLAG (Drosophila melanogaster); assay: as above
[5] = target: T3, Usp fused to APEX2 through a 25 nm GS linker, marked with 3xFLAG (Drosophila melanogaster) (UniProt P20153); assay: proximity labelling; APEX2 fused to EcR or Usp, stably expressed in S2 cells; 20E or DMSO 1 h, biotin-phenol 30 min, 1 mM H2O2 5 min; nuclear extract, Streptavidin-Agarose precipitation, LC-MS/MS
T3 sequence: T2 sequence

[6] = target: T4, EcR (isoform A) fused to APEX2 through a 25 nm GS linker, marked with 3xFLAG (Drosophila melanogaster) (UniProt P34021); assay: as above
T4 sequence: T1 sequence

Measured: binding

B1: Chromator (protein, UniProt Q8T9D1 1-926)
chain: MLAQEISPTEIGKHANIIRAAQEELANMDVLVCGRCLRAYNFVEEFQAHKEDACEKENANLKESLDPKPTIWAFTLWKATQLHSRKDASGNSWALYQHWVKLDDSVREPWIVAGKTIQSFGKIAHGQLQDMPVRITKTVVNPNNNNTSNSNNNNTSVSPTRKSPTGKLPTLANQLKDTENERPKSKPSTPTPSSVPSAGAVKPNNRIAIRIDSKTDQRTEEPVEKIVAKRFNPRRKTHEYLVKWVDRSHHENTWEVMANLERVPYFLQMFEKQLARQKLTREKGLDALKRMQSSGTNAKSDTASPHSPLPASSQVSPSSRPSRTSKTKAMDAFKQWVNETVAGDGSSSPSSANEDESSTEQEWPPSSGAIKRKLNNTDSSLEGSGLNDSMDLEDLEEDLPSHTVKRLKNGGSSVQLNKPRIQSTEKQQTKINGNSTVVSPLTEQKMGEIIYTEDSTSSGMFRKPEMPNTINLKKEKPECPVRYLSRSEVGSSTRGVFRVENSEAPAPVSPAPVPQKVIAAPPAAGIAKRLPMARPAHSGANSPITVGQRQHALRTPGHGPVTAALHRRPGVGGASHVRQNLQQAPGRAHPGGRVLARAGVGTPQHRQQVQTPQGAKAVTPEQKILQLSKSGDLKVTRKVVTREELLAQRSAQARQRQALSQQQSSQQQKATPARQRIVSKSTIQPTPLQMELEEEIHQHQAQLCPITGKLIGQEETQLQMEQEQQQEQQREQLEAAAQALLGSDQQVLTNEDGSALLVRGEDGTVYQVAGKNAEGQTILVTQGPDGEQQFAYVAAAEGEDQDVLSLDHAVAEAVQAGEQVESHGVGAATADGEQILVSMTEEELAQHQVLQQAEASAAGTGTPPTAQIHITTSDSDGTESQIPAEVVQADLPSPGGTRRVVLLLQDGTFMMTEMHEDQFKTLNIPT
binds: [1] | [2] | [3] | [4]

B2: Scra (protein, UniProt Q9V4P1 1-1239)
chain: MDPFTQHMLEKAEQRSRALGISNASKFPLVECSVPSSSATSASGGDAGVLAPRSRSPGGQSAASGGGKVVTLGKATLEASPAKPLRHYTAVNKENLDMGIEINITTDKPIGVQVEIQEQEVTDDEEQAEGGALNPLLEAEPVNQPLARLRDTSRSRLQRMGALYSNTDDLSSPIHRTEGQFHVTTGEEEDCGNRSSRQPKQRLGKLAALADTINQWEDDTSHHEVHRLLEAPPPKPHLSSRRAEKGPAPLPPKKDEVDEASRTKQLKWDPKVLSSLEAQGFQRRESSTIKHTYDYAKQEEAAPASKVEDAVLTAKPPVPQKSTTVSQVAKNFASSAPAPKPAPAPAVSVKSGLVSGRAALFENKGTGGQSQGLRNQKDPCELSLKERMKLFETGNNKAMLPMAPIGSAPSITQIRAEEVKQHLAAMHPVTAAAATTVVAATKPKQENKLRDKVAALVANAQSSAETRIKDIDRQRQEDMQIISNRFNKQKELFDNQPSDSSVAAQARPPAPAPSRVVRPMPPPPPPPIAALSPGLASSKRRSPGDAPTTDEDSKRARKSHSDRLYPALSDLDSSGDNCCAAETASATDDSHQQDEEETESCMDESDDQSQTEDSSAGMCNGSLGREIMSAVQRNEVEMQQQQTGKKTVRYADQDMYYDDSSLNSSQVSAGIDDYLDEALVEDYGSTQDDQSDSGDEQNASRLSLGSKGTTASNSFSFRKNPASICTPIEEHHEMEMDLQTPLLSGAQPVKSELSVNQDNDNLVTLVHTVSFYRRQQSANSSNSTPVRKICREQQVMRSALAGDCHAKHRLEYDSPQQSDYVAAATDIADQTDEDDEEMQNAREVNDASQAQDKIKKLLSEVCKQQQVIGQASQALNLCAATVEFSGSTESVEGERYLLLATHRRQACLDEVQRLRVENSIRPVGAPKEKGLLTVKDITIPLRQEYVRKMASNNINGHHLVCLLKYNEHVLATKTVPTMPGLLSVKFPDVLQLNNVYADFRITLEIYGMLAQRDQLPHELKYHINLNKKGGIKTPKKKGGENRLVMPPVQSPAGPHVVRTPQLVQYGFAIFSLREIQRTTWTLTQVLGVSPLEGVVHMKVNCELSVSVEYKGFLTMFEDISGFGAWHRRWCYLNGSVINYWKYPDDEKRKTPMGSIDLNSCTSQKVTTAPRDICARLNTMLLECERPALETDQESLIIVPNGRTTTVRHLLSADTKEEREEWCAYLNKALTLLRAWGTTH
binds: [5] | [6] | [3] | [4]

B3: Nup88 (protein, UniProt Q9GYU8 1-702)
chain: MSLTDVLELNKTELFAKIRNGLPVVQRTQNLLDCKDDLLFAWHAKDSCLLVRNWRSSLAAKVNIQFQTLIPSSLVSLEVDRVLASNEGSLVALSGPRGVVIMELPRRWGPDGYYKDGKPVITCRTFGLDTQLFLKNPHLEVRQVRWHPHSVSDSTLLVLLNNNTIRVYNHSKLRHVWQVGPPVLRSGANNSLCDFGELAVDFDIAPAAKPRVTEPETAGNNETTLDKSNKTLVAAKSLPKQERIEWPMVVLRENGNIYILMTGVDSENTRLQGPVTITPQAHDNYGLESCALMIIPSLPPTIVIAESNGKLHHALLMEAEATEHSFNEVDDSVLIEPAEYVVHVLETVELELGISAPATGKEGGNCPIYLKRDLINELRYFAYHNAGLHAVTVSFIAELQRYLESESDEDRLELAVSASAEYILCTKFDSSETVNAVFGLALLQIPAGIVLLLGSGQVISLKLVIDAQLLVTPNENKPVDSEVSQQESGPPFVDTIKSLLQRSVNQPILADKLSSPSAQESFELLNQAIEVLREQYLKRHDLVRAAFTRHINQIQLKKEQQLQEIQDLEQERELISERAHKLAERFEEISYNQELLVRKCNALMQRANASLPNSVIAEREFSQEVIRLNKVTQSLAAGLETAKKTFNKQRYHIAQSQEDLKKNAYELPEKQHRTITEILTQLTGEIDRQITDVKRINKIVGI
binds: [5] | [6] | [3] | [4]

No constants are given. Whether binding was seen depends on the method and setting. Binding seen in cells or lysates may run through a third protein. A yes stands for co-enrichment or nearness to the bait. Other partners may have been found. Sequences can lack the tags named with a protein.
